± gives the standard deviation. The entries are a selection whose mix differs from that of the whole data set. The uncertainty is large for many entries.

The text below walks through data of the supplement of paper PMC10338343.

One test concerns MILI (PIWIL2) piRISC loaded with L1MC piRNA (26 nt). The test is described as follows: pre-steady-state target cleavage rate (min^-1); MIWI and MILI are mouse PIWI proteins and EfPiwi is from a freshwater sponge; tags in brackets are library labels; higher = faster piRNA-guided slicing of the target. Conditions: guide: L1MC piRNA 5'p-UAACUAAAUACUAUGCAAGCUGUAGG; auxiliary factor: 500 nM mouse GTSF1. The method in brief: (§1)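 Active affinity-purified piRISC (1 nM) loaded with one synthetic guide was mixed with a transcribed, DNA-blocked target RNA library (0.1 nM), with or without 500 nM GTSF1 partner protein, in HEPES–potassium acetate buffer at 33 °C for 0–8 or 0–960 min. Uncleaved targets were sequenced, normalised to depth and to weakly complementary targets, and pooled across three trials, with k3 capped at 0.0001 min^-1. The pre-steady-state cleavage rate was determined with a burst-and-steady-state fit.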
UCCUGGAUGUCGAAGCAUAGCAUUUAGUUA: the “pre-steady-state target cleavage rate” value is 0.00187 ± 0.006.
On the same count and under the same terms, then UCCUGGAUGUCGAACGUAUGUUAUUAGUUA, with 0.000141 ± 0.05; and UCCUGGAUGAGCUUGCAUAGUAUUUCAGUUA, with 0.207 ± 0.048.
With UCCUGGAUGUCGAUGACAUAGUAUUUAGUUA, the “pre-steady-state target cleavage rate” value was found to be 0.015 ± 0.0059.
As for UCCUGGAUGUCGAACCUAGUAUUUAGUUA, the “pre-steady-state target cleavage rate” value amounted to 0.000458 ± 0.011.
Still for that read-out and setting: then UCCUGGAUGUCGAUGCAUAGUUUUUACUUA, with 0.000541 ± 0.014; and UCCUGGUACAGCUUGGUAAGUAUUUAGUAA, with 0.18 ± 0.034; and UCCUCCUACAGCUUGCAAACUAUUUAGUUA, with 0.0393 ± 0.0078.
On to UCCUGGAUGUCGAUGGAUAGUUUUUAGUUA, for which the “pre-steady-state target cleavage rate” value was 0.000479 ± 0.015.
In the case of UCCUCCUACAGCUUGCAUAGUUAUUAGUUA, the “pre-steady-state target cleavage rate” value turned out to be 0.0492 ± 0.015.
For UCCUGGAUGUGCUUGCAUAGUAUUUUCAUA, the “pre-steady-state target cleavage rate” value was found to be 0.00417 ± 0.0048.
On the same count and under the same terms, the result for UCCUGGAUCAGCUUCCAUAGUAAUUAGUUA reads 0.00494 ± 0.004; that for UCCUGGAUGUGCUUGCAUACAAUUUAGUAA, 0.000987 ± 0.01.
The same measure, in the same setting: then UCCUCCUACAGCUUGGUAAGUAUUUAGAAA, with 0.0543 ± 0.013; and UCCUGGAUGUCGAACGUUAGUAUUUAUUUA, with 0.000168 ± 0.038.
The same measure, in the same setting: the result for UCCUGCUACUCCUUGCAUAGUAUUUAGAAA reads 0.0806 ± 0.019.

The same test, now with this note: guide: L1MC piRNA 5'p-UAACUAAAUACUAUGCAAGCUGUAGG; auxiliary factor: none (no GTSF1).
As for UCCUGGAUGUCGAACCAUUGUAUUUAGUUA, the “pre-steady-state target cleavage rate” value worked out at 0.000328 ± 0.009.
With UCCUGGAUGUCGUUGCAAUAGUAUUUAGUUA, the “pre-steady-state target cleavage rate” value is 0.00188 ± 0.0035.
On the same count and under the same terms, then UCCUGGUACAGCUAGCAUAGUAUUUUCAAA, with 0.00119 ± 0.0061; and UCCUCCUAGAGCUUGCAUAGAAUUUAGUUA, with 0.00171 ± 0.0033.
Turning to “UCCUGGAUGUCGAAGCAUAGUAUUUAGUUC [g2:g16:cont:t1C]”, the “pre-steady-state target cleavage rate” value is 0.00232 ± 0.0027.
Same read-out and setting: then UCCUGGAUGUCGAUGCAUAGGAUUUAGUUA, with 0.00157 ± 0.0044; and UCCUGGAUGUCCAACCAUAGUAUUUAGUUA, with 0.000975 ± 0.0046; and UCCUGGAUGUCGUUGCAUUCUAUUUAGUUA, with 0.000388 ± 0.014.
Still for that read-out and setting: the result for UCCUGGUAGAGCUUGCAUAGUAUUUAGAAA reads 0.00163 ± 0.0042; that for UCCUGGAUGUCCUUGGAUACUAUUUAGUUA, 0.0016 ± 0.0052; that for UCCUGGAACUGCUUGCAUAGUAUUAAGUUA, 0.00346 ± 0.0024.
Same read-out and setting: then UCCUGGAUCAGCUUGCUAUGUAUUUAGUAA, with 0.00111 ± 0.0048; and UCCUGGAUCAGGAAGCAUAGUAUUUAGUUA, with 0.00311 ± 0.0023; and UCCUGGAUCAGCUUGCAUAGUAUAAUGAAA, with 0.00132 ± 0.0059.
Turning to UCCUGGAUGAGCUUGCAUUGAAUUUAGUUA, the “pre-steady-state target cleavage rate” value was 0.00139 ± 0.0045.
On the same count and under the same terms, the result for UCCUGGAUGUCGAACGUAAGUAUUUAUUA reads 0.000159 ± 0.036; that for UCCUGCUAGAGCUUGCAUAGUAUUUACAAA, 0.00105 ± 0.0068; that for UCCUGGUACAGCUAGCAUAGUUUUUAGUUA, 0.00928 ± 0.0026.
For the sequence UCCUGGAUGUCGUUGCAUAGUUUUUAGAUA, the “pre-steady-state target cleavage rate” value was found to be 0.00134 ± 0.0041.
The same measure, in the same setting: the result for UCCUGGAUGUCGUUGCGAUAGUAUUUAGUUA reads 0.000214 ± 0.015; that for UCCUGGAUGUCGAAGCAGAGUAUUUAGUUA, 0.000906 ± 0.0071; that for UCCUCCUACAGCUUGCAUAGUCUUUAGUUA, 0.00522 ± 0.0021.
Take UCCUGGAUGUCGAAGAUAGUAUUUAGUUA: the “pre-steady-state target cleavage rate” value turned out to be 0.000436 ± 0.0096.
Same read-out and setting: then UCCUGGAUGUCGAAGGAUAGUUUUUAGUUA, with 0.000216 ± 0.02; and UCCUGGAUGUCGAAGCAUAGCAUUUAGUUA, with 0.000803 ± 0.006; and UCCUGGAUGUCGAACGUAUGUUAUUAGUUA, with 0.000253 ± 0.016.
Still for that read-out and setting: the result for UCCUGGAUGAGCUUGCAUAGUAUUUCAGUUA reads 0.00415 ± 0.0028.
The same measure, in the same setting: the result for UCCUGGAUGUCGAUGACAUAGUAUUUAGUUA reads 0.000975 ± 0.0043; that for UCCUGGAUGUCGAACCUAGUAUUUAGUUA, 0.000146 ± 0.012.
For UCCUGGAUGUCGAUGCAUAGUUUUUACUUA, the “pre-steady-state target cleavage rate” value was found to be 0.000323 ± 0.017.
In the case of UCCUGGUACAGCUUGGUAAGUAUUUAGUAA, the “pre-steady-state target cleavage rate” value amounted to 0.00367 ± 0.0027.
The same measure, in the same setting: then UCCUCCUACAGCUUGCAAACUAUUUAGUUA, with 0.00226 ± 0.0033; and UCCUGGAUGUCGAUGGAUAGUUUUUAGUUA, with 0.000646 ± 0.0087; and UCCUCCUACAGCUUGCAUAGUUAUUAGUUA, with 0.00242 ± 0.0032.
UCCUGGAUGUGCUUGCAUAGUAUUUUCAUA: the “pre-steady-state target cleavage rate” value turned out to be 0.000923 ± 0.0069.
Still for that read-out and setting: then UCCUGGAUCAGCUUCCAUAGUAAUUAGUUA, with 0.000665 ± 0.0084.
For UCCUGGAUGUGCUUGCAUACAAUUUAGUAA, the “pre-steady-state target cleavage rate” value was 0.000953 ± 0.0066.
On the same count and under the same terms, then UCCUCCUACAGCUUGGUAAGUAUUUAGAAA, with 0.000992 ± 0.0039.
For UCCUGGAUGUCGAACGUUAGUAUUUAUUUA, the “pre-steady-state target cleavage rate” value came out at 0.000124 ± 0.048.
Still for that read-out and setting: the result for UCCUGCUACUCCUUGCAUAGUAUUUAGAAA reads 0.000998 ± 0.0051.

The subject of another test is MIWI (PIWIL1) piRISC loaded with L1MC piRNA (30 nt). The description is as above. Conditions: guide: L1MC piRNA 5'p-UAACUAAAUACUAUGCAAGCUGUAGGUCCU; auxiliary factor: 500 nM mouse GTSF1. The method in brief:
as §1
As for UCCUGGAUGUCCAACCAUAGUAUUUAGUUA, the “pre-steady-state target cleavage rate” value is 0.00291 ± 0.0043.
On to UCCUGGAUGUCGUUGCAUUCUAUUUAGUUA, for which the “pre-steady-state target cleavage rate” value is 0.000585 ± 0.016.
Regarding UCCUGGAUGUCGAAGGAUAGUUUUUAGUUA, the “pre-steady-state target cleavage rate” value is 0.000172 ± 0.029.
As for UCCUGGAUGUCGAACGUAUGUUAUUAGUUA, the “pre-steady-state target cleavage rate” value is 0.000217 ± 0.032.
As for UCCUGGAUGUCGAUGCAUAGUUUUUACUUA, the “pre-steady-state target cleavage rate” value came out at 0.000333 ± 0.018.
Turning to UCCUGGAUGUCGAUGGAUAGUUUUUAGUUA, the “pre-steady-state target cleavage rate” value is 0.000196 ± 0.036.
As to UCCUGGAUGUGCUUGCAUACAAUUUAGUAA, the “pre-steady-state target cleavage rate” value turned out to be 0.001 ± 0.011.
For the sequence UCCUGGAUGUCGAACGUUAGUAUUUAUUUA, the “pre-steady-state target cleavage rate” value turned out to be 0.000173 ± 0.036.

The same test, now with this note: guide: L1MC piRNA 5'p-UAACUAAAUACUAUGCAAGCUGUAGGUCCU; auxiliary factor: none (no GTSF1).
Take UCCUGGAUGUCGAACCAUUGUAUUUAGUUA: the “pre-steady-state target cleavage rate” value was 0.000338 ± 0.012.
For the sequence UCCUGGAUGUCGUUGCAAUAGUAUUUAGUUA, the “pre-steady-state target cleavage rate” value was determined as 0.00119 ± 0.0053.
Same read-out and setting: the result for UCCUGGUACAGCUAGCAUAGUAUUUUCAAA reads 0.00104 ± 0.0049; that for “UCCUGGAUGUCGAAGCAUAGUAUUUAGUUC [g2:g16:cont:t1C]”, 0.00124 ± 0.0046; that for UCCUGGAUGUCGAUGCAUAGGAUUUAGUUA, 0.000582 ± 0.011.
Still for that read-out and setting: then UCCUGGAUGUCCUUGGAUACUAUUUAGUUA, with 0.000823 ± 0.0097.
As for UCCUGGAUCAGCUUGCUAUGUAUUUAGUAA, the “pre-steady-state target cleavage rate” value was determined as 0.0014 ± 0.0032.
Still for that read-out and setting: the result for UCCUGGAUCAGGAAGCAUAGUAUUUAGUUA reads 0.00178 ± 0.0036.
For UCCUGCUAGAGCUUGCAUAGUAUUUACAAA, the “pre-steady-state target cleavage rate” value was 0.00248 ± 0.003.
On the same count and under the same terms, the result for UCCUGGAUGUCGUUGCAUAGUUUUUAGAUA reads 0.000685 ± 0.0086; that for UCCUGGAUGUCGUUGCGAUAGUAUUUAGUUA, 0.000409 ± 0.014.
UCCUGGAUGUCGAAGCAGAGUAUUUAGUUA: the “pre-steady-state target cleavage rate” value came out at 0.000885 ± 0.0091.
Same read-out and setting: the result for UCCUGGAUGUCGAAGAUAGUAUUUAGUUA reads 0.000455 ± 0.011; that for UCCUGGAUGUCGAAGCAUAGCAUUUAGUUA, 0.000748 ± 0.0083; that for UCCUGGAUGUCGAUGACAUAGUAUUUAGUUA, 0.000551 ± 0.0098.
Regarding UCCUGGAUGUCGAACCUAGUAUUUAGUUA, the “pre-steady-state target cleavage rate” value amounted to 0.000194 ± 0.0097.
In the case of UCCUGGUACAGCUUGGUAAGUAUUUAGUAA, the “pre-steady-state target cleavage rate” value was determined as 0.00124 ± 0.0057.
UCCUGGAUGUGCUUGCAUAGUAUUUUCAUA: the “pre-steady-state target cleavage rate” value turned out to be 0.0022 ± 0.0033.
Still for that read-out and setting: the result for UCCUGGAUCAGCUUCCAUAGUAAUUAGUUA reads 0.000855 ± 0.0081.
As for UCCUCCUACAGCUUGGUAAGUAUUUAGAAA, the “pre-steady-state target cleavage rate” value was found to be 0.000259 ± 0.01.
On the same count and under the same terms, the result for UCCUGCUACUCCUUGCAUAGUAUUUAGAAA reads 0.00232 ± 0.0031.
